The other results are listed elsewhere or left out.

Sequences of proteins named here, by UniProt entry; tags and fusion partners are left off.
UniProt Q0JBA9, entry or part of it: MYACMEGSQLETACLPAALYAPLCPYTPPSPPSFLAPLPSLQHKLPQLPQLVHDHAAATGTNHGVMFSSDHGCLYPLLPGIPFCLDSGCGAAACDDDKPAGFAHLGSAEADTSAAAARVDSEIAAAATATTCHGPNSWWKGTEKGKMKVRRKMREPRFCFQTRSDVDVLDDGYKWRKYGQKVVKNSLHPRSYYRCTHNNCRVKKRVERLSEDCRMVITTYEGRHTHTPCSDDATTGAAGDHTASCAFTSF

The target in the assay is OsWRKY34 (Oryza sativa, UniProt Q0JBA9 1-250). Put plainly: protein-binding microarray (RPBM); PBS, 2% BSA, 51.3 ng/ul salmon testes DNA, 50 uM zinc acetate, 200 nM TF, 25 C, 1 h; high values mean tight binding. The following applies: protein: recombinant; tags: N-terminal polyhistidine and DsRed monomer fusion (pET32a); label: CyDye5-dUTP incorporated in the synthesized complementary strand; 3' TTTTT single-stranded linker to array surface; dsDNA, one strand shown. The procedure, abridged: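 Binding signal is defined as the fluorescence intensity of each feature in arbitrary units, read on an Axon 4000B scanner. Transcription factors with N-terminal polyhistidine and DsRed fusions came from E. coli BL21-CodonPlus and were purified on Ni–NTA. They were incubated at 200 nM for 1 h at 25 °C on a custom Agilent array that had been made double-stranded with Cy5-dUTP, with 50 µM zinc acetate present, and the array was washed.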
For “ACCATAAAGCCAAGTTTCATCCATAATCCTTATTTTTCATCGGAGTCACCTAGTGCAG”, the binding signal is 8670 fluorescence intensity (a.u.).
As for “GCAGTTGGTGGTGTGTAGTGTGAGCTAAGGGTATTTGATCCGGAGTCACCTAGTGCAG”, the binding signal is 8620 fluorescence intensity (a.u.).
“TGTTCTTGTTCTCTGCATTCTCTGAATTCTCTGTCTCCCTCGGAGTCACCTAGTGCAG”: the binding signal is 11400 fluorescence intensity (a.u.).
Turning to “GGTCATACTCTCTTCGTCCCATTTAATGTACAATCATGCTCGGAGTCACCTAGTGCAG”, the binding signal was 8860 fluorescence intensity (a.u.).
For the sequence “TTAGTTTTGTTAGATCGTCGATTTTGATTAGTGCGTTTGACGGAGTCACCTAGTGCAG”, the binding signal was 9190 fluorescence intensity (a.u.).
As for “TTCCTCCGTTTCACAATGTAAAATTTTCTAGCATTACTCTCGGAGTCACCTAGTGCAG”, the figure is 8660 fluorescence intensity (a.u.); as for “GCCAACCACCATTAGCCAACTAACTAATCATCGTCTACGTCGGAGTCACCTAGTGCAG”, 9880 fluorescence intensity (a.u.).
As for “GCTCTCTCTCTCTCTCTCTCTCGCTGTCTCTCTCCCTCCCCGGAGTCACCTAGTGCAG”, the figure is 9110 fluorescence intensity (a.u.); as for “CTTTCCAGTTCCTTGTTTCTATCACACTCACTAGGACCAACGGAGTCACCTAGTGCAG”, 8900 fluorescence intensity (a.u.).
The figure for “ATCCCCGGTCATCTCGCCTCGTCTCGTCCCGTCCCTGCGCCGGAGTCACCTAGTGCAG” is 15100 fluorescence intensity (a.u.); for “TCTGGGAAAGAATCCCAAATGTGTCGCCTCTATCTCGCCTCGGAGTCACCTAGTGCAG” it is 10400 fluorescence intensity (a.u.); for “GAACTAACACACAAACTTCCAACTTTTCCATCACATCAAACGGAGTCACCTAGTGCAG” it is 13200 fluorescence intensity (a.u.).
In the case of “TGCTTACACACCATCCCATCCTCCCTCTCCACCGTCGGATCGGAGTCACCTAGTGCAG”, the binding signal is 8460 fluorescence intensity (a.u.).
As to “CGATGGTTGGTTGTTATGTATTTTTAAGAATTTTTAGTACCGGAGTCACCTAGTGCAG”, the binding signal was 8060 fluorescence intensity (a.u.).
In the case of “ACCGCACCACCTCTAGGTCGCCACGACCAAGAACACACATCGGAGTCACCTAGTGCAG”, the binding signal is 10600 fluorescence intensity (a.u.).
As to “AGGAGCCAGACTTAGTTGGTGTAAGCCATTTACTAGTTGACGGAGTCACCTAGTGCAG”, the binding signal is 22800 fluorescence intensity (a.u.).
As for “ATGATATGAGCTGATATTGTTATTCATCTCAACTTTTCTTCGGAGTCACCTAGTGCAG”, the figure is 8560 fluorescence intensity (a.u.); as for “TATGCTTCATCTGTTCTTCTACATTGTTATCTACTATCTGCGGAGTCACCTAGTGCAG”, 10100 fluorescence intensity (a.u.).
As for “TTTGTTGCGTTTCTCCGCCCTTCGGCCACACCGGCCGGCTCGGAGTCACCTAGTGCAG”, the figure is 11600 fluorescence intensity (a.u.); as for “CAACACATTGCTGTAATTTGCCATCAGCTTTGGCCATCATCGGAGTCACCTAGTGCAG”, 10500 fluorescence intensity (a.u.).
Take “GGGAGGGAGAGCGACGTGAGAGAGATGGGAGGGGAGGGAGCGGAGTCACCTAGTGCAG”: the binding signal is 10200 fluorescence intensity (a.u.).
The figure for “GTCGGACGTTCCGTTTCCCACACTTCTGACTGCAAAAACCCGGAGTCACCTAGTGCAG” is 8170 fluorescence intensity (a.u.).
As for “GGTGGGGTGAGCGTGTGTGCGGCGCTAGGGTTCGCGAGGGCGGAGTCACCTAGTGCAG”, the figure is 9200 fluorescence intensity (a.u.); as for “CTCCTCCTCTGGCGCCGCCGCTCCGATGCCGCCCACCGCCCGGAGTCACCTAGTGCAG”, 8240 fluorescence intensity (a.u.); as for “CTTCAAGGCTTTGTGGTGACACTGATATCTCTCTAGTCTCCGGAGTCACCTAGTGCAG”, 8680 fluorescence intensity (a.u.).
Regarding “GCTCGATCTTCTTTTTTTTCAAATAGTTTGGATCATTTATCGGAGTCACCTAGTGCAG”, the binding signal is 10200 fluorescence intensity (a.u.).
The figure for “AACTGATCCTAATTAACACTACCCATATACTCTTTTCGTCCGGAGTCACCTAGTGCAG” is 8060 fluorescence intensity (a.u.); for “TTCTCTCAACCCCATCGGTCTCATGCCTGATCGGATCGATCGGAGTCACCTAGTGCAG” it is 9770 fluorescence intensity (a.u.); for “ACGTTGGTTGCCCTTTTTTTCGCTCAGTCCCCACGGCAAACGGAGTCACCTAGTGCAG” it is 13500 fluorescence intensity (a.u.).
For the sequence “GTCTGCATTGAGGCTGCATTTCTGCATTGACCATCCTAGTCGGAGTCACCTAGTGCAG”, the binding signal is 8410 fluorescence intensity (a.u.).
As for “TGCCTCCACACTTTGCCCATTTCCCTAGTTTGTCCCTCTCCGGAGTCACCTAGTGCAG”, the figure is 8080 fluorescence intensity (a.u.); as for “ACTTTAATCTCCCGTCTTATTTGAATTTTTTTTATGATTACGGAGTCACCTAGTGCAG”, 8200 fluorescence intensity (a.u.); as for “TTCGCCTTTTCGTCTCCTATTATTACCGTTCTTCCTTTTACGGAGTCACCTAGTGCAG”, 10500 fluorescence intensity (a.u.).
For the sequence “TACCAGGACTTGAGTTGATCCTTTTTCGCCGCTCACGCCGCGGAGTCACCTAGTGCAG”, the binding signal is 8390 fluorescence intensity (a.u.).
Regarding “TACCATATTCGTATCCGCATCCGCATGCAACTATCCGCATCGGAGTCACCTAGTGCAG”, the binding signal was 8140 fluorescence intensity (a.u.).
The figure for “TTAATCTACAAGCTAGTGTGAACCATGTATACCTTTCTTCCGGAGTCACCTAGTGCAG” is 8710 fluorescence intensity (a.u.); for “GCCGCCCCACCCACCACCACCACCACCGCGCCGCCACGCGCGGAGTCACCTAGTGCAG” it is 9300 fluorescence intensity (a.u.).
For “TTCTGCAGGGCGCATTGAATGCCATATTTTGAAATTTCTGCGGAGTCACCTAGTGCAG”, the binding signal is 8850 fluorescence intensity (a.u.).
The figure for “TATTATATATTCTTTGGGAAAGCGTTGGATTAGTTTTTCTCGGAGTCACCTAGTGCAG” is 8780 fluorescence intensity (a.u.).
As to “GTCGTGTGGCCATATATCTCTTCGAGCTGGTGGGGCTTGACGGAGTCACCTAGTGCAG”, the binding signal is 8530 fluorescence intensity (a.u.).
Take “CTCCATCTTTTTTAGCGTGTGTTAGAGGGAAACACGTTTGCGGAGTCACCTAGTGCAG”: the binding signal was 8430 fluorescence intensity (a.u.).
The figure for “CACTTTACTTAGGCTCTGTTCGTTTCCTGGAGTTCCCAACCGGAGTCACCTAGTGCAG” is 9570 fluorescence intensity (a.u.).

The values are drawn from paper PMC7819943, “Rice protein-binding microarrays: a tool to detect cis-acting elements near promoter regions in rice”.
